This note sets out measurements from article PMC12808100, “The non-catalytic DNA polymerase ε subunit is an NPF motif recognition protein” (Nature Communications, 2025).

Test [1] concerns the target His6-AviTag-MBP-TEV-POLE2 (human) (UniProt P56282). The test can be described thus: native holdup (nHU) with mass spectrometry; single point; biotinylated His6-avi-MBP-POLE2 bait on streptavidin resin at 26 μM, His6-avi-MBP as control; Jurkat extract, 4 °C, 2 h; label-free MS of the supernatant; apparent; only the target purified.
The target in test [2] is C-terminally MAC3-tagged POLE2, wild type (human) (UniProt P56282). Put plainly: proximity labelling; C-terminally MAC3-tagged (ultraID) POLE2 variants in Flp-In T-REx 293 cells, tetracycline 24 h, 50 μM biotin 3 h; Strep-Tactin purification, mass spectrometry, SAINTexpress against GFP control.

These are yes or no findings as the source states them, for the method shown. In cells and extracts the contact can be indirect. These calls come from enrichment with a bait or labelling near it, and not all partners need be listed. For some of these results: A no says only that the protein was not detected with the bait. Sequences can lack the tags named with a protein.

B1: DNA excision repair protein ERCC-6-like (ERCC6L), endogenous (protein, UniProt Q2NKX8 1-1250)
chain: MEASRRFPEAEALSPEQAAHYLRYVKEAKEATKNGDLEEAFKLFNLAKDIFPNEKVLSRIQKIQEALEELAEQGDDEFTDVCNSGLLLYRELHNQLFEHQKEGIAFLYSLYRDGRKGGILADDMGLGKTVQIIAFLSGMFDASLVNHVLLIMPTNLINTWVKEFIKWTPGMRVKTFHGPSKDERTRNLNRIQQRNGVIITTYQMLINNWQQLSSFRGQEFVWDYVILDEAHKIKTSSTKSAICARAIPASNRLLLTGTPIQNNLQELWSLFDFACQGSLLGTLKTFKMEYENPITRAREKDATPGEKALGFKISENLMAIIKPYFLRRTKEDVQKKKSSNPEARLNEKNPDVDAICEMPSLSRKNDLIIWIRLVPLQEEIYRKFVSLDHIKELLMETRSPLAELGVLKKLCDHPRLLSARACCLLNLGTFSAQDGNEGEDSPDVDHIDQVTDDTLMEESGKMIFLMDLLKRLRDEGHQTLVFSQSRQILNIIERLLKNRHFKTLRIDGTVTHLLEREKRINLFQQNKDYSVFLLTTQVGGVGLTLTAATRVVIFDPSWNPATDAQAVDRVYRIGQKENVVVYRLITCGTVEEKIYRRQVFKDSLIRQTTGEKKNPFRYFSKQELRELFTIEDLQNSVTQLQLQSLHAAQRKSDIKLDEHIAYLQSLGIAGISDHDLMYTCDLSVKEELDVVEESHYIQQRVQKAQFLVEFESQNKEFLMEQQRTRNEGAWLREPVFPSSTKKKCPKLNKPQPQPSPLLSTHHTQEEDISSKMASVVIDDLPKEGEKQDLSSIKVNVTTLQDGKGTGSADSIATLPKGFGSVEELCTNSSLGMEKSFATKNEAVQKETLQEGPKQEALQEDPLESFNYVLSKSTKADIGPNLDQLKDDEILRHCNPWPIISITNESQNAESNVSIIEIADDLSASHSALQDAQASEAKLEEEPSASSPQYACDFNLFLEDSADNRQNFSSQSLEHVEKENSLCGSAPNSRAGFVHSKTCLSWEFSEKDDEPEEVVVKAKIRSKARRIVSDGEDEDDSFKDTSSINPFNTSLFQFSSVKQFDASTPKNDISPPGRFFSSQIPSSVNKSMNSRRSLASRRSLINMVLDHVEDMEERLDDSSEAKGPEDYPEEGVEESSGEASKYTEEDPSGETLSSENKSSWLMTSKPSALAQETSLGAPEPLSGEQLVGSPQDKAAEATNDYETLVKRGKELKECGKIQEALNCLVKALDIKSADPEVMLLTLSLYKQLNNN
As to B1, in test [1], the binding entry was “binds”.

B2: AGFG1, endogenous full length (protein, UniProt P52594 1-562)
chain: MAASAKRKQEEKHLKMLRDMTGLPHNRKCFDCDQRGPTYVNMTVGSFVCTSCSGSLRGLNPPHRVKSISMTTFTQQEIEFLQKHGNEVCKQIWLGLFDDRSSAIPDFRDPQKVKEFLQEKYEKKRWYVPPEQAKVVASVHASISGSSASSTSSTPEVKPLKSLLGDSAPTLHLNKGTPSQSPVVGRSQGQQQEKKQFDLLSDLGSDIFAAPAPQSTATANFANFAHFNSHAAQNSANADFANFDAFGQSSGSSNFGGFPTASHSPFQPQTTGGSAASVNANFAHFDNFPKSSSADFGTFNTSQSHQTASAVSKVSTNKAGLQTADKYAALANLDNIFSAGQGGDQGSGFGTTGKAPVGSVVSVPSQSSASSDKYAALAELDSVFSSAATSSNAYTSTSNASSNVFGTVPVVASAQTQPASSSVPAPFGATPSTNPFVAAAGPSVASSTNPFQTNARGATAATFGTASMSMPTGFGTPAPYSLPTSFSGSFQQPAFPAQAAFPQQTAFSQQPNGAGFAAFGQTKPVVTPFGQVAAAGVSSNPFMTGAPTGQFPTGSSSTNPFL
On to B2, for which the binding result in test [1] was “binds”.

B3: SEC23-interacting protein (SEC23IP), endogenous (protein, UniProt Q9Y6Y8 1-1000)
chain: MAERKPNGGSGGASTSSSGTNLLFSSSATEFSFNVPFIPVTQASASPASLLLPGEDSTDVGEEDSFLGQTSIHTSAPQTFSYFSQVSSSSDPFGNIGQSPLTTAATSVGQSGFPKPLTALPFTTGSQDVSNAFSPSISKAQPGAPPSSLMGINSYLPSQPSSLPPSYFGNQPQGIPQPGYNPYRHTPGSSRANPYIAPPQLQQCQTPGPPAHPPPSGPPVQMYQMPPGSLPPVPSSVQSPAQQQVPARPGAPSVQVPSPFLLQNQYEPVQPHWFYCKEVEYKQLWMPFSVFDSLNLEEIYNSVQPDPESVVLGTDGGRYDVYLYDRIRKAAYWEEEPAEVRRCTWFYKGDTDSRFIPYTEEFSEKLEAEYKKAVTTNQWHRRLEFPSGETIVMHNPKVIVQFQPSSVPDEWGTTQDGQTRPRVVKRGIDDNLDEIPDGEMPQVDHLVFVVHGIGPVCDLRFRSIIECVDDFRVVSLKLLRTHFKKSLDDGKVSRVEFLPVHWHSSLGGDATGVDRNIKKITLPSIGRFRHFTNETLLDILFYNSPTYCQTIVEKVGMEINHLHALFMSRNPDFKGGVSVAGHSLGSLILFDILSNQKDLNLSKCPGPLAVANGVVKQLHFQEKQMPEEPKLTLDESYDLVVENKEVLTLQETLEALSLSEYFSTFEKEKIDMESLLMCTVDDLKEMGIPLGPRKKIANFVEHKAAKLKKAASEKKAVAATSTKGQEQSAQKTKDMASLPSESNEPKRKLPVGACVSSVCVNYESFEVGAGQVSVAYNSLDFEPEIFFALGSPIAMFLTIRGVDRIDENYSLPTCKGFFNIYHPLDPVAYRLEPMIVPDLDLKAVLIPHHKGRKRLHLELKESLSRMGSDLKQGFISSLKSAWQTLNEFARAHTSSTQLQEELEKVANQIKEEEEKQVVEAEKVVESPDFSKDEDYLGKVGMLNGGRRIDYVLQEKPIESFNEYLFALQSHLCYWESEDTALLLLKEIYRTMNISPEQPQH
For the molecule B3, the binding entry in test [1] was “binds”.

B4: POLE4, endogenous (protein, UniProt Q9NR33 1-117)
chain: MAAAAAAGSGTPREEEGPAGEAAASQPQAPTSVPGARLSRLPLARVKALVKADPDVTLAGQEAIFILARAAELFVETIAKDAYCCAQQGKRKTLQRRDLDNAIEAVDEFAFLEGTLD
Regarding B4, the binding entry in test [2] is “binds”.

B5: PYGO2, endogenous (protein, UniProt Q9BRQ0 1-406)
chain: MAASAPPPPDKLEGGGGPAPPPAPPSTGRKQGKAGLQMKSPEKKRRKSNTQGPAYSHLTEFAPPPTPMVDHLVASNPFEDDFGAPKVGVAAPPFLGSPVPFGGFRVQGGMAGQVPPGYSTGGGGGPQPLRRQPPPFPPNPMGPAFNMPPQGPGYPPPGNMNFPSQPFNQPLGQNFSPPSGQMMPGPVGGFGPMISPTMGQPPRAELGPPSLSQRFAQPGAPFGPSPLQRPGQGLPSLPPNTSPFPGPDPGFPGPGGEDGGKPLNPPASTAFPQEPHSGSPAAAVNGNQPSFPPNSSGRGGGTPDANSLAPPGKAGGGSGPQPPPGLVYPCGACRSEVNDDQDAILCEASCQKWFHRECTGMTESAYGLLTTEASAVWACDLCLKTKEIQSVYIREGMGQLVAANDG
In the case of B5, the binding result in test [1] is given as “no binding (tested: 26 μM POLE2 concentration)”.

B6: EPN2, endogenous full length (protein, UniProt O95208 1-641)
chain: MTTSSIRRQMKNIVNNYSEAEIKVREATSNDPWGPSSSLMTEIADLTYNVVAFSEIMSMVWKRLNDHGKNWRHVYKALTLLDYLIKTGSERVAQQCRENIFAIQTLKDFQYIDRDGKDQGINVREKSKQLVALLKDEERLKAERAQALKTKERMAQVATGMGSNQITFGRGSSQPNLSTSHSEQEYGKAGGSPASYHGSPEASLCPQHRTGAPLGQSEELQPLSQRHPFLPHLGLASRPNGDWSQPCLTCDRAARATSPRVSSELEQARPQTSGEEELQLQLALAMSREVAEQEERLRRGDDLRLQMALEESRRDTVKIPKKKEHGSLPQQTTLLDLMDALPSSGPAAQKAEPWGPSASTNQTNPWGGPAAPASTSDPWPSFGTKPAASIDPWGVPTGATVQSVPKNSDPWAASQQPASSAGKRASDAWGAVSTTKPVSVSGSFELFSNLNGTIKDDFSEFDNLRTSKKTAESVTSLPSQNNGTTSPDPFESQPLTVASSKPSSARKTPESFLGPNAALVNLDSLVTRPAPPAQSLNPFLAPGAPATSAPVNPFQVNQPQPLTLNQLRGSPVLGTSTSFGPGPGVESMAVASMTSAAPQPALGATGSSLTPLGPAMMNMVGSVGIPPSAAQATGTTNPFLL
Regarding B6, in test [1], the binding entry is given as “binds”.

B7: SSBP3, endogenous (protein, UniProt Q9BWW4 1-388)
chain: MFAKGKGSAVPSDGQAREKLALYVYEYLLHVGAQKSAQTFLSEIRWEKNITLGEPPGFLHSWWCVFWDLYCAAPERRDTCEHSSEAKAFHDYSAAAAPSPVLGNIPPNDGMPGGPIPPGFFQGPPGSQPSPHAQPPPHNPSSMMGPHSQPFMSPRYAGGPRPPIRMGNQPPGGVPGTQPLLPNSMDPTRQQGHPNMGGSMQRMNPPRGMGPMGPGPQNYGSGMRPPPNSLGPAMPGINMGPGAGRPWPNPNSANSIPYSSSSPGTYVGPPGGGGPPGTPIMPSPADSTNSSDNIYTMINPVPPGGSRSNFPMGPGSDGPMGGMGGMEPHHMNGSLGSGDIDGLPKNSPNNISGISNPPGTPRDDGELGGNFLHSFQNDNYSPSMTMSV
As to B7, the binding result in test [1] is given as “binds”.

B8: LMO4, endogenous (protein, UniProt P61968 1-165)
chain: MVNPGSSSQPPPVTAGSLSWKRCAGCGGKIADRFLLYAMDSYWHSRCLKCSCCQAQLGDIGTSCYTKSGMILCRNDYIRLFGNSGACSACGQSIPASELVMRAQGNVYHLKCFTCSTCRNRLVPGDRFHYINGSLFCEHDRPTALINGHLNSLQSNPLLPDQKVC
As to B8, in test [1], the binding result is on record as “binds”.

B9: SSBP2, endogenous (protein, UniProt P81877 1-361)
chain: MYGKGKSNSSAVPSDSQAREKLALYVYEYLLHVGAQKSAQTFLSEIRWEKNITLGEPPGFLHSWWCVFWDLYCAAPERRETCEHSSEAKAFHDYSAAAAPSPVLGNIPPGDGMPVGPVPPGFFQPFMSPRYPGGPRPPLRIPNQALGGVPGSQPLLPSGMDPTRQQGHPNMGGPMQRMTPPRGMVPLGPQNYGGAMRPPLNALGGPGMPGMNMGPGGGRPWPNPTNANSIPYSSASPGNYVGPPGGGGPPGTPIMPSPADSTNSGDNMYTLMNAVPPGPNRPNFPMGPGSDGPMGGLGGMESHHMNGSLGSGDMDSISKNSPNNMSLSNQPGTPRDDGEMGGNFLNPFQSESYSPSMTMSV
For B9, the binding entry in test [1] is recorded as “binds”.

B10: NUMB, endogenous full length (protein, UniProt P49757 1-651)
chain: MNKLRQSFRRKKDVYVPEASRPHQWQTDEEGVRTGKCSFPVKYLGHVEVDESRGMHICEDAVKRLKAERKFFKGFFGKTGKKAVKAVLWVSADGLRVVDEKTKDLIVDQTIEKVSFCAPDRNFDRAFSYICRDGTTRRWICHCFMAVKDTGERLSHAVGCAFAACLERKQKREKECGVTATFDASRTTFTREGSFRVTTATEQAEREEIMKQMQDAKKAETDKIVVGSSVAPGNTAPSPSSPTSPTSDATTSLEMNNPHAIPRRHAPIEQLARQGSFRGFPALSQKMSPFKRQLSLRINELPSTMQRKTDFPIKNAVPEVEGEAESISSLCSQITNAFSTPEDPFSSAPMTKPVTVVAPQSPTFQANGTDSAFHVLAKPAHTALAPVAMPVRETNPWAHAPDAANKEIAATCSGTEWGQSSGAASPGLFQAGHRRTPSEADRWLEEVSKSVRAQQPQASAAPLQPVLQPPPPTAISQPASPFQGNAFLTSQPVPVGVVPALQPAFVPAQSYPVANGMPYPAPNVPVVGITPSQMVANVFGTAGHPQAAHPHQSPSLVRQQTFPHYEASSATTSPFFKPPAQHLNGSAAFNGVDDGRLASADRHTEVPTGTCPVDPFEAQWAALENKSKQRTNPSPTNPFSSDLQKTFEIEL
As to B10, the binding result in test [1] was “binds”.
